# Assay results published in doi:10.1101/2025.01.23.634435.
# Amino acid sequences for entries named in this document (tags omitted).
# UniProt Q01094: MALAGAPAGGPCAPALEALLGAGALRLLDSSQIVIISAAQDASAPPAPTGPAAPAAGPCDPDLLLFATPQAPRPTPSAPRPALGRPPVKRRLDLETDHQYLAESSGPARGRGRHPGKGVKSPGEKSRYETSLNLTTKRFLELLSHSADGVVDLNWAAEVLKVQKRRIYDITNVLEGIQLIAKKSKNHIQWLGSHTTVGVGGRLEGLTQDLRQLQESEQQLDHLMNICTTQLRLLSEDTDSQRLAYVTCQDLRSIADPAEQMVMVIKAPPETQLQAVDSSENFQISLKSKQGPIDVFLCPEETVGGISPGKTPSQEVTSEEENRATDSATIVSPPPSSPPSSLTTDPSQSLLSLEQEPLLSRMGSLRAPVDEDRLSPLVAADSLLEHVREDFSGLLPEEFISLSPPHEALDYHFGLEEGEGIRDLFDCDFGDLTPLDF
# UniProt P03206: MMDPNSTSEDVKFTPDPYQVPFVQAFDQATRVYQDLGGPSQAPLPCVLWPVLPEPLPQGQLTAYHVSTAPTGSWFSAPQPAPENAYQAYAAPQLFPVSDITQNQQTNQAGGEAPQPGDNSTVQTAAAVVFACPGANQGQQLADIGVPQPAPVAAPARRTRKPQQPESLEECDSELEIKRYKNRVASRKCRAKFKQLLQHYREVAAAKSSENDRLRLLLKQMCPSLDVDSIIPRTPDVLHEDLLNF
# These are yes or no findings as the source states them, for the method shown. In cells and extracts the contact can be indirect.
# Target: flag-tagged E2F1 (UniProt Q01094)
# Test: co-IP
substance,measurement,value
myc-tagged BZLF1 (from UniProt P03206 1-245),binding,no binding
